The other results are listed elsewhere or left out. Single values are uncertain, as repeats are few or missing.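 Imaging used 1,536-well plates; nuclei positive for cleaved PARP by antibody were divided by total DNA-stained nuclei to yield the apoptosis fraction. Doses for screening kept most cells viable, and cell lines differ markedly in resting and induced cleaved-PARP levels.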
Assays:
Test in all cases: cleaved PARP positive nuclei fraction relative to DMSO control; melanoma cells; higher = more apoptosis
Details in all cases: library dose: low library concentration; 72 h
[1] = tested on: CBRC034 (line from a melanoma biopsy)
[2] = tested on: COLO792
[3] = tested on: COLO800
[4] = tested on: COLO829
[5] = tested on: G361
[6] = tested on: IPC-298
[7] = tested on: IST-MEL1
[8] = tested on: LB2518-MEL
[9] = tested on: LOXIMVI
[10] = tested on: MZ2-MEL
[11] = tested on: MeWo
[12] = tested on: RPMI7951
[13] = tested on: RVH-421
[14] = tested on: SkMel28
[15] = tested on: SkMel30
[16] = tested on: SkMel5
[17] = tested on: UACC257
[18] = tested on: UACC62

O=C(O)c1ccc(-c2c[nH]c3ncc(-c4ccccc4)cc23)cc1C1CCCC1 + COC(=O)c1sccc1S(=O)(=O)Nc1ccc(Nc2ccccc2)cc1OC [GSK0660] (first compound 0.16 µM, partner dose 1 µM)
cleaved PARP positive nuclei fraction [1]: 46.5%
cleaved PARP positive nuclei fraction [2]: 162%
cleaved PARP positive nuclei fraction [3]: 76.6%
cleaved PARP positive nuclei fraction [4]: 129%
cleaved PARP positive nuclei fraction [5]: 92.9%
cleaved PARP positive nuclei fraction [6]: 130%
cleaved PARP positive nuclei fraction [7]: 67.9%
cleaved PARP positive nuclei fraction [8]: 84.5%
cleaved PARP positive nuclei fraction [9]: 153%
cleaved PARP positive nuclei fraction [10]: 60%
cleaved PARP positive nuclei fraction [11]: 62.9%
cleaved PARP positive nuclei fraction [12]: 87.4%
cleaved PARP positive nuclei fraction [13]: 65%
cleaved PARP positive nuclei fraction [14]: 147%
cleaved PARP positive nuclei fraction [15]: 104%
cleaved PARP positive nuclei fraction [16]: 32.8%
cleaved PARP positive nuclei fraction [17]: 43.8%
cleaved PARP positive nuclei fraction [18]: 43.4%

COc1cc2ncnc(Nc3ccc(Oc4ccccc4)cc3)c2cc1OC + Oc1cc(-c2nc(-c3ccccc3)[nH]c2-c2ccncc2)ccc1Cl [L779450] (first compound 2 µM, partner dose 0.2 µM)
cleaved PARP positive nuclei fraction [1]: 90.4%
cleaved PARP positive nuclei fraction [2]: 75.7%
cleaved PARP positive nuclei fraction [3]: 112%
cleaved PARP positive nuclei fraction [4]: 41.1%
cleaved PARP positive nuclei fraction [5]: 105%
cleaved PARP positive nuclei fraction [6]: 33.7%
cleaved PARP positive nuclei fraction [7]: 69.3%
cleaved PARP positive nuclei fraction [8]: 181%
cleaved PARP positive nuclei fraction [9]: 122%
cleaved PARP positive nuclei fraction [10]: 109%
cleaved PARP positive nuclei fraction [11]: 92.9%
cleaved PARP positive nuclei fraction [12]: 76.8%
cleaved PARP positive nuclei fraction [13]: 73.3%
cleaved PARP positive nuclei fraction [14]: 198%
cleaved PARP positive nuclei fraction [15]: 318%
cleaved PARP positive nuclei fraction [16]: 58.5%
cleaved PARP positive nuclei fraction [17]: 111%
cleaved PARP positive nuclei fraction [18]: 157%

O=C(Nc1ccccc1)c1cc([N+](=O)[O-])ccc1Cl + COc1cc(N2CCC(N3CCN(C)CC3)CC2)ccc1Nc1ncc(Cl)c(Nc2ccccc2S(=O)(=O)C(C)C)n1 [NVP-TAE684] (first compound 2 µM, partner dose 0.08 µM)
cleaved PARP positive nuclei fraction [1]: 41.5%
cleaved PARP positive nuclei fraction [2]: 76.7%
cleaved PARP positive nuclei fraction [3]: 79.8%
cleaved PARP positive nuclei fraction [4]: 87%
cleaved PARP positive nuclei fraction [5]: 51.6%
cleaved PARP positive nuclei fraction [6]: 56.6%
cleaved PARP positive nuclei fraction [7]: 58.9%
cleaved PARP positive nuclei fraction [8]: 112%
cleaved PARP positive nuclei fraction [9]: 34.1%
cleaved PARP positive nuclei fraction [10]: 93.4%
cleaved PARP positive nuclei fraction [11]: 109%
cleaved PARP positive nuclei fraction [12]: 91.8%
cleaved PARP positive nuclei fraction [13]: 139%
cleaved PARP positive nuclei fraction [14]: 25.7%
cleaved PARP positive nuclei fraction [15]: 56.5%
cleaved PARP positive nuclei fraction [16]: 145%
cleaved PARP positive nuclei fraction [17]: 66.9%
cleaved PARP positive nuclei fraction [18]: 117%

NCC(=O)Nc1ccc(-n2nc(C(F)(F)F)cc2-c2ccc3c(ccc4ccccc43)c2)cc1 + O=c1cc(-c2cccc3c2Sc2ccccc2S3)oc(N2CCOCC2)c1 [KU55933] (first compound 1 µM, partner dose 1 µM)
cleaved PARP positive nuclei fraction [1]: 49.9%
cleaved PARP positive nuclei fraction [2]: 91.7%
cleaved PARP positive nuclei fraction [3]: 43.6%
cleaved PARP positive nuclei fraction [4]: 117%
cleaved PARP positive nuclei fraction [5]: 129%
cleaved PARP positive nuclei fraction [6]: 154%
cleaved PARP positive nuclei fraction [7]: 101%
cleaved PARP positive nuclei fraction [8]: 76.3%
cleaved PARP positive nuclei fraction [9]: 48.3%
cleaved PARP positive nuclei fraction [11]: 166%
cleaved PARP positive nuclei fraction [12]: 37.1%
cleaved PARP positive nuclei fraction [13]: 41.9%
cleaved PARP positive nuclei fraction [14]: 88.1%
cleaved PARP positive nuclei fraction [15]: 78.4%
cleaved PARP positive nuclei fraction [16]: 155%
cleaved PARP positive nuclei fraction [17]: 84.1%
cleaved PARP positive nuclei fraction [18]: 188%

COC(=O)c1sccc1S(=O)(=O)Nc1ccc(Nc2ccccc2)cc1OC + O=c1cc(-c2cccc3c2Sc2ccccc2S3)oc(N2CCOCC2)c1 [KU55933] (first compound 1 µM, partner dose 1 µM)
cleaved PARP positive nuclei fraction [1]: 84.5%
cleaved PARP positive nuclei fraction [2]: 142%
cleaved PARP positive nuclei fraction [3]: 91.4%
cleaved PARP positive nuclei fraction [4]: 28%
cleaved PARP positive nuclei fraction [5]: 86%
cleaved PARP positive nuclei fraction [6]: 114%
cleaved PARP positive nuclei fraction [7]: 130%
cleaved PARP positive nuclei fraction [8]: 66.1%
cleaved PARP positive nuclei fraction [9]: 53%
cleaved PARP positive nuclei fraction [10]: 198%
cleaved PARP positive nuclei fraction [11]: 216%
cleaved PARP positive nuclei fraction [12]: 93.7%
cleaved PARP positive nuclei fraction [13]: 117%
cleaved PARP positive nuclei fraction [14]: 88.1%
cleaved PARP positive nuclei fraction [15]: 49.7%
cleaved PARP positive nuclei fraction [16]: 121%
cleaved PARP positive nuclei fraction [17]: 111%
cleaved PARP positive nuclei fraction [18]: 45.9%

CCCCCCCCCCCC1=C(O)C(=O)C=C(O)C1=O [Embelin] + CC(C)CCN1c2nc(Nc3cc(F)c(O)c(F)c3)ncc2N(C)C(=O)C1C [BID1870] (first compound 1.2 µM, partner dose 0.2 µM)
cleaved PARP positive nuclei fraction [1]: 177%
cleaved PARP positive nuclei fraction [2]: 154%
cleaved PARP positive nuclei fraction [3]: 110%
cleaved PARP positive nuclei fraction [4]: 89%
cleaved PARP positive nuclei fraction [5]: 133%
cleaved PARP positive nuclei fraction [6]: 40.7%
cleaved PARP positive nuclei fraction [7]: 40.1%
cleaved PARP positive nuclei fraction [8]: 176%
cleaved PARP positive nuclei fraction [9]: 13.5%
cleaved PARP positive nuclei fraction [10]: 118%
cleaved PARP positive nuclei fraction [11]: 25.1%
cleaved PARP positive nuclei fraction [12]: 35%
cleaved PARP positive nuclei fraction [13]: 24%
cleaved PARP positive nuclei fraction [14]: 81%
cleaved PARP positive nuclei fraction [15]: 13.2%
cleaved PARP positive nuclei fraction [16]: 68.5%
cleaved PARP positive nuclei fraction [17]: 94.8%
cleaved PARP positive nuclei fraction [18]: 151%

O=C(O)C(=O)Nc1sc2c(c1C(=O)O)CCNC2 + c1cc(-c2cnn3cc(-c4ccc(OCCN5CCCCC5)cc4)cnc23)ccn1 [Dorsomorphin] (first compound 1.66667 µM, partner dose 0.4 µM)
cleaved PARP positive nuclei fraction [1]: 53%
cleaved PARP positive nuclei fraction [2]: 75%
cleaved PARP positive nuclei fraction [3]: 65.2%
cleaved PARP positive nuclei fraction [4]: 82.3%
cleaved PARP positive nuclei fraction [5]: 85.2%
cleaved PARP positive nuclei fraction [6]: 81.1%
cleaved PARP positive nuclei fraction [7]: 56.9%
cleaved PARP positive nuclei fraction [8]: 239%
cleaved PARP positive nuclei fraction [9]: 29.9%
cleaved PARP positive nuclei fraction [11]: 49.2%
cleaved PARP positive nuclei fraction [12]: 128%
cleaved PARP positive nuclei fraction [13]: 27.7%
cleaved PARP positive nuclei fraction [14]: 90.1%
cleaved PARP positive nuclei fraction [15]: 43.8%
cleaved PARP positive nuclei fraction [16]: 121%
cleaved PARP positive nuclei fraction [17]: 111%
cleaved PARP positive nuclei fraction [18]: 49.2%
